From publication PMC12188314
Changes are numbered by the printed parent chain. Names may count otherwise. These are yes or no findings as the source states them, for the method shown. Binding can be weak; no strength is given. Where a sequence is shown, tags or fusion partners need not be part of it. Blank lines part the entries; values can stand above or below the binder they belong to.

Chains of the proteins cited; added tags and fusions are not shown. Lines headed by an entry give the natural chain unless they say otherwise; changes in a name come on top.
UniProt Q99P58: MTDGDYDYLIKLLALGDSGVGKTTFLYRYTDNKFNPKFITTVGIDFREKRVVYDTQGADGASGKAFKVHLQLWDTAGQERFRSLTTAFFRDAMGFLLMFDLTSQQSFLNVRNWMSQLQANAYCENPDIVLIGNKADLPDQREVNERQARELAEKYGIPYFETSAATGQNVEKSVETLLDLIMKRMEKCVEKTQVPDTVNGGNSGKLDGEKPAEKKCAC

Target: Rab27B(CA)ΔCys, pGBD-C1 two-hybrid fusion (UniProt Q99P58)
Experiment: two-hybrid; pGBD-C1-Rabs(CA)ΔCys as bait, pAct2-RBD27 (WT or mutant) as prey; growth on synthetic complete medium lacking adenine, histidine, leucine and tryptophan, 30°C, ~1 week

binding: binds
B1: RBD27-WT (synaptotagmin-like protein homology domain of Slp2-a), pAct2 two-hybrid fusion (domain or fragment, UniProt Q99N50-1 1-87)
chain: MIDLSFLTEEEQDAILKVLQRDAALKRAEEERVRHLPEKIKDDQQLKNMSGQWFYEAKAKRHRDKIHGADIIRASMRRKKLPAAAEQ

binding: no binding
B2: RBD27-mut (E11A/R32A), pAct2 two-hybrid fusion (domain or fragment, UniProt Q99N50 1-87)
chain: B1 chain with E11A, R32A
